# Results published in ChEMBL document CHEMBL5252554, “Stereodivergent Hydroxylation of Berkeleylactones by Penicillium turbatum” (J Nat Prod, 2023).
# Test system: Candida albicans
# Test: Antifungal activity against Candida albicans ATCC 10231 assessed as fungal growth inhibition measured after 48 hrs by bromocresol green staining based method
# Type: functional
smiles,measurement,value
C[C@@H]1[C@H](O)[C@@H](C)/C=C/C=C/C=C/C=C/C=C/C=C/C=C/[C@H](O[C@@H]2O[C@H](C)[C@@H](O)[C@H](N)[C@@H]2O)C[C@@H]2O[C@](O)(C[C@@H](O)C[C@@H](O)[C@H](O)CC[C@@H](O)C[C@@H](O)CC(=O)O[C@H]1C)C[C@H](O)[C@H]2C(=O)O [AMPHOTERICIN B],MIC,0.1 µM
